The campaign covered roughly 410,000 compounds. About 18,000 (4.4%) were called active. The shares of active, inactive and inconclusive entries below differ from those in the screen. Rule as the data show it: active = activity change below about -60%; inconclusive = no clear call, values can overlap the other calls; inactive = above about -39%.
Experiment: qHTS Assay for inhibitors of the human cytomegalovirus (HCMV)
Settings: HFF cells, HCMV-luciferase reporter, 72 h; at 57.5 µM; hits give low values
In short: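 Cell-based, HFFs, 1000 cells/well, 16 h 37C; cpds in DMSO + HCMV-luc, MOI 1 PFU/cell; 72 h 37C; OneGlo luminescence after 5 min RT; norm. to buffer vs Salinomycin 10uM.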
% is scaled to controls: 0 for no effect and ±100 for the full control effect.

| Compound | activity change, negative = inhibition |
| --- | --- |
| COc1ccc(CNC(=S)Nc2cccc(C)c2)cc1 | inactive: -30.8% |
| O=C(N/N=C/c1c[nH]c2ccc(Br)cc12)c1ccccn1 | inconclusive: -42.4% |
| CC1CCN(CCc2nc3cc(NC(=O)COc4ccccc4)ccc3n2C)CC1 | inconclusive: -50.1% |
| CSc1ccc(C(=O)C2CCCN(C(=O)c3nn(C)c(=O)c4ccccc34)C2)cc1 (stereo unspecified) | inactive: -25.1% |
| O=C(c1ccccc1)C(c1ccccc1)c1ccccc1 | inconclusive: -44.1% |
| CCCc1ccc(OCc2ccc(C(=O)N/N=C/c3cccc([N+](=O)[O-])c3)o2)c(OC)c1 | active: -67.9% |
| Nc1nc(NCC(=O)O)nc(NC2CCCCC2)c1[N+](=O)[O-] | inconclusive: -42.8% |
| O=C(N/N=C/c1ccccc1OC(F)F)NC1CCCCC1 | inactive: -30.4% |
| COc1ccc(/C=N/Nc2ncnc(Cl)c2N)cc1OC | inconclusive: -51.9% |
| O=C(Nc1nc2ccccc2n1CCOc1ccc(Cl)cc1)c1ccco1 | inconclusive: -55.4% |
| Cc1ccc(-c2csc(N3CCN(CCCn4c(C(F)(F)F)nc5ccccc54)CC3)n2)cc1 | inconclusive: -46.5% |
| COc1ccc(N2CCN(S(=O)(=O)c3ccc(C(=O)NCc4ccco4)cc3)CC2)cc1 | inconclusive: -41.7% |
| N#Cc1cccc(-c2cn(S(=O)(=O)c3ccc(Cl)cc3)nc2N)c1 | inconclusive: -40.1% |
| COCc1cc(C)nc(SCC(=O)Nc2cccc(C)c2C)c1C#N | inconclusive: -47% |
| COc1cccc(/C=N/NC(=O)c2cnn(-c3ccccc3)c2N)c1 | inactive: 45.1% |
| CC(=O)Nc1ccc(S(=O)(=O)N2CCN(C(=O)N3CCCCCC3)CC2)cc1 | active: -68.5% |
| CC(CCc1ccccc1)NC(=O)N1CCOCC1 (stereo unspecified) | inactive: -30.4% |
| O=C(NCc1ccc(Cl)cc1)c1ccc(CNc2c(N3CCCC3)c(=O)c2=O)cc1 | inactive: 7.76% |
| N#CNC(=Nc1ccc(F)cc1)SCc1ccccc1 | inconclusive: -55% |

2 records drawn at random from the list so far, as already listed:

| Compound | activity change, negative = inhibition |
| --- | --- |
| COc1ccc(N2CCN(S(=O)(=O)c3ccc(C(=O)NCc4ccco4)cc3)CC2)cc1 | inconclusive: -41.7% |
| O=C(N/N=C/c1ccccc1OC(F)F)NC1CCCCC1 | inactive: -30.4% |

(next part)

| Compound | activity change, negative = inhibition |
| --- | --- |
| COc1ccc(OC2C(=O)N(c3ccc(C)c(C)c3)C2c2ccc(OC)c(OC)c2)cc1 (stereo unspecified) | inconclusive: -47.2% |
| NNP(=O)(CC(=O)c1ccccc1)c1ccccc1 (stereo unspecified) | inconclusive: -40.3% |
| Cc1cccc(NC(=O)CNC(=O)Cc2ccc(S(=O)(=O)N3CCOCC3)s2)c1C | active: -104% |
| NC(=O)C1CCN(CCC(=O)Nc2ccc3c(c2)CCC3)CC1 | inactive: -4.1% |
| Cn1c2c(c3ccccc31)CCSC2=O | inconclusive: -40.4% |
| CCOC(=O)c1ccc(NC(=O)CCc2nc(-c3ccccc3Cl)no2)cc1 | inactive: -32.8% |
| CCCN(CCC)C(=O)CSc1nc2ccccc2c(=O)n1Cc1ccco1 | inactive: -21.3% |
| COc1ccc(CC(=O)NCc2nc3cccnc3n2Cc2ccc(C)cc2)cc1 | inconclusive: -47.7% |
| Cc1cc(C)c(S(=O)(=O)N(C)Cc2cnn(C)c2)c(C)c1 | inactive: 6.07% |
| CCc1ccccc1NC(=O)Nc1cccc(F)c1 | inconclusive: -44% |
| C[C@@H]1CN([C@@H](C)CO)S(=O)(=O)c2ccc(Br)cc2O[C@H]1CN(C)Cc1ccc(-c2ccccc2)cc1 | inactive: -21.5% |
| Cc1ccc(OCc2cc(C(=O)N3CC4C[C@@H]5CC3C[C@H](C4)C5)no2)cc1C | inactive: 63% |
| O=C(NCc1ccco1)C1CCN(c2nnc(-n3cccc3)s2)CC1 | active: -66.5% |
| CCOc1cc(NC(=O)c2ccco2)c(OCC)cc1NC(=O)COc1ccccc1C | inconclusive: -42.3% |
| NS(=O)(=O)c1ccc(CNC(=S)NC2CC2)cc1 | inconclusive: -56.5% |
| CC(=O)Nc1cccc(Oc2ncnc3scc(-c4ccc(C)cc4)c23)c1 | active: -66.3% |
| COc1cccc(N/C(SCc2ccccc2Cl)=C(/C#N)C(=O)NCc2cccs2)c1 | inactive: -39.2% |
| COc1ccc(OC)c(NC(=O)CSc2nnc(-c3ccncc3)s2)c1 | inconclusive: -52.7% |
| CCOc1ccc(OCCC(=O)N2CCN(S(=O)(=O)c3cccc(F)c3)CC2)cc1 | inactive: -20.9% |

| Compound | activity change, negative = inhibition |
| --- | --- |
| O=C(/C=C/c1ccc(Cl)c([N+](=O)[O-])c1)Nc1ccc(N2CCCC2)c(Cl)c1 | active: -67.5% |
| COc1ccccc1N1CCN(S(=O)(=O)CCNC(=O)CCc2ccccc2)CC1 | active: -85.7% |
| Cc1cc(NC(=O)CSc2ncn[nH]2)no1 | inconclusive: -49.7% |
| CC(c1ccccc1)n1c(Cn2ncc3ccccc3c2=O)n[nH]c1=S (stereo unspecified) | inconclusive: -49.8% |
| Cc1cc(C)nc(-n2nc(C)cc2NC(=O)c2ccc(F)cc2F)n1 | active: -89.4% |
| CC(=O)Nc1ccc(S(=O)(=O)Oc2ccc(C(=S)N3CCC(O)CC3)cc2)cc1 | active: -72.4% |
| N#Cc1c(-c2ccccc2)c(-c2ccccc2)n[nH]c1=O | inconclusive: -47.7% |
| CCCC(=O)Nc1ccc(Cl)c(NC(=O)c2cccc(OC)c2)c1 | active: -78.9% |
| CN1CCc2nc(NC(=O)COc3ccc4ccccc4c3)sc2C1 | active: -81.6% |
| Cc1cccc(NC(=O)C2CCN(S(=O)(=O)c3c(C)noc3/C=C/c3ccco3)CC2)n1 | active: -65.6% |
| CCn1c(=O)c(=O)n(CC)c2cc(N3CCCCC3)c(NC(=O)c3ccc(Cl)cc3)cc21 | inactive: -11.3% |
| Fc1cccc(NC(=S)NCc2ccc(Cl)cc2)c1 | inconclusive: -45.4% |
| COCCN1C[C@@H](CO)O[C@@H](n2cnc3c(NCc4ccncc4)ncnc32)C1 | inconclusive: -59.3% |
| NCCCCCc1nnc(SCc2ccc(Cl)c(Cl)c2)o1 | inconclusive: -59.5% |
| S=c1[nH]nc(-c2ccc3ncccc3c2)n1-c1ccc2c(c1)OCCO2 | inactive: -4.8% |
| CN1CCc2nc3sc(C(=O)NCc4ccccc4)c(N)c3cc2C1 | inconclusive: -46.9% |
| FC(F)(F)c1cccc(-c2nc(COc3ccc(Cl)cc3Cl)no2)c1 | inconclusive: -56.2% |
| C[C@H](O)[C@@H]1C(=O)N2CCc3c([nH]c4ccccc34)[C@@H]2C[C@@H]1N(C)S(=O)(=O)c1ccccc1 | inactive: 36.9% |

From PubChem BioAssay AID1259415 (National Center for Advancing Translational Sciences (NCATS), 2018)
